Measurements reported in patent publication US20250281444A1, “COMPOUND WITH NEW SKELETON OF URSANE TRITERPENOID - ENT-KAURANE DITERPENOID DIMER, AND PREPARATION METHOD THEREOF AND APPLICATION THEREOF” (NANJING UNIVERSITY OF CHINESE MEDICINE, priority 2025, published 2025).
Some of these results come from one statement about several compounds together. For at least one compound, name, drawing or mass did not settle the structure.

System: Helicobacter pylori H. pylori G27
Assay: Determination of MIC (microdilution)
Assay type: cell-based
Conditions: both sensitive and drug-resistant Helicobacter pylori (G27 and 129)
Experimental: Helicobacter pylori (G27 and HP129) and Candida albicans (SC5314 and C5) both came from Professor Hongkai Bi's laboratory of Nanjing Medical University. Main culture mediums and main reagents: Colombian culture medium, LB culture medium, selective antibiotics (metronidazole and amphotericin B), serum, and the like.
Colombian liquid culture medium: 29.0 g of Colombian liquid culture medium was accurately weighed, heated, and dissolved in 1000 mL of double distilled water, and the culture medium was subjected to autoclaved sterilization at 121° C. for 15 minutes after being completely dissolved for later use.
Colombian blood agar solid culture medium: 39.0 g of Colombian blood agar solid culture medium was accurately weighed, heated, and dissolved in 1000 mL of double distilled water, and the culture medium was subjected to autoclaved sterilization at 121° C. for 15 minutes after being completely dissolved, naturally cooled to about 50° C. after the autoclaved sterilization, quickly added with 5% sterile deflbrinated sheep blood, mixed evenly, and then poured into a sterile dish while the mixture was hot. […]
(5) In result judgment, a lowest drug concentration capable of completely inhibiting the growth of bacteria in the wells was MIC. […] When there was a single drift in a microdilution method, a highest drug concentration capable of inhibiting the growth of bacteria should be recorded. […]

In the case of `COC(=O)C12CCC(C)(CC3C(=O)C45C(O)C3CCC4C34COC5(O)C(O)C3C(C)(C)CCC4O)C(C)=C1C1=CCC3C4(C)CC(O)C(O)C(C)(C)C4CCC3(C)C1(C)CC2` (centres unmarked) [Compound 1, Bisicacinol B], the “MIC on Helicobacter pylori” value is reported as 16 to 32 µg/mL.
In the case of `COC(=O)C12CCC(C)(CC3C(=O)C45C(O)C3CCC4C34COC5(O)C(O)C3C(C)(C)CCC4O)C(C)=C1C1=CCC3C4(C)CC(O)C(O)C(C)(C)C4CCC3(C)C1(C)CC2` (centres unmarked) [Compound 2, Bisicacinol C], the “MIC on Helicobacter pylori” value is reported as 16 to 32 µg/mL.
